{"sequences": {"note": "The chains behind the UniProt entries cited, without tags or fusion partners.", "UniProt Q96RY7": "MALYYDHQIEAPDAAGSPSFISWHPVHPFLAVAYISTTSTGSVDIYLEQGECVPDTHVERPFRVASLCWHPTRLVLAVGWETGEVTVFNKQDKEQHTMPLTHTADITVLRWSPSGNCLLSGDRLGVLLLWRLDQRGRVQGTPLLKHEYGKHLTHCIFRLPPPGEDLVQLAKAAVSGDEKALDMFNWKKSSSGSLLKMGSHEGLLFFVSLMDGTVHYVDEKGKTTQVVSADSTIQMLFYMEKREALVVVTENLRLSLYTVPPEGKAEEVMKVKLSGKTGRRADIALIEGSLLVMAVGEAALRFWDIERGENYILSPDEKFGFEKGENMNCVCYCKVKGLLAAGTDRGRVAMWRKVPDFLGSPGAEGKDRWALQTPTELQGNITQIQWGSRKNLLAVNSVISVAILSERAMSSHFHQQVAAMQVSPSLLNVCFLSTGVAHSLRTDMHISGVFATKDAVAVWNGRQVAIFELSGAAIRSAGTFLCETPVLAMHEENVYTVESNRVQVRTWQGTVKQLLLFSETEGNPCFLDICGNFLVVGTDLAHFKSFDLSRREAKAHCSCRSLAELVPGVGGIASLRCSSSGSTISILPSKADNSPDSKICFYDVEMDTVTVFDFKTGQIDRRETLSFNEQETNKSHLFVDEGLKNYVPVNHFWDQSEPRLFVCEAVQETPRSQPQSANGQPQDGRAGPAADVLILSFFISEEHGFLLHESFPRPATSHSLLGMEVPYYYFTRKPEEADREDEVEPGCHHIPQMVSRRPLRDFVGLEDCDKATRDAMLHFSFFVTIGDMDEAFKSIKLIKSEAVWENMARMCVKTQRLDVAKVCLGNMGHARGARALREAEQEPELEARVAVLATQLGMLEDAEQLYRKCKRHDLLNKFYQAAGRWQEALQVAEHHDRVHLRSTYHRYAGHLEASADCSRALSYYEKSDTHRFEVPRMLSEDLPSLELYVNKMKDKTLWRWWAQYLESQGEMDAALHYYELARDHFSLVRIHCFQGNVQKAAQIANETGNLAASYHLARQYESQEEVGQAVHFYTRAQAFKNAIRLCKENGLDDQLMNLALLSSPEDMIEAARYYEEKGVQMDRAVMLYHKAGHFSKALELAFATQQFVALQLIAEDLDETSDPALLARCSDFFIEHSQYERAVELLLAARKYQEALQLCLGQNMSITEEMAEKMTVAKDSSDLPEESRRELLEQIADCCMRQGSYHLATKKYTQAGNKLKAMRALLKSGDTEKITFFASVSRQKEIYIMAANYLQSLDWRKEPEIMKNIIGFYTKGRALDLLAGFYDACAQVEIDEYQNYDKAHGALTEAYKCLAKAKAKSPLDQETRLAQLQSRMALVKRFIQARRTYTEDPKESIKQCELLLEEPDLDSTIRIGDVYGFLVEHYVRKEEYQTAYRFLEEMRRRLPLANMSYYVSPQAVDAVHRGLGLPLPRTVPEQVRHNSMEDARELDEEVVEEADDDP", "UniProt Q9Y266": "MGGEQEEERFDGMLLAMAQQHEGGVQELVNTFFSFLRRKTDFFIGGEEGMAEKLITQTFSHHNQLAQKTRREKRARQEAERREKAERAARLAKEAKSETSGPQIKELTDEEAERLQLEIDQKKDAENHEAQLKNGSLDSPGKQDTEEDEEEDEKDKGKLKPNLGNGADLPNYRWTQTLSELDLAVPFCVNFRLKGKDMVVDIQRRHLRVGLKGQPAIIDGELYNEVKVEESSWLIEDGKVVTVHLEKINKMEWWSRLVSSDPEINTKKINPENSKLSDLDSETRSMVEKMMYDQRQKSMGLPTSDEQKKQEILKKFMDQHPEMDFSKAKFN", "UniProt P09884": "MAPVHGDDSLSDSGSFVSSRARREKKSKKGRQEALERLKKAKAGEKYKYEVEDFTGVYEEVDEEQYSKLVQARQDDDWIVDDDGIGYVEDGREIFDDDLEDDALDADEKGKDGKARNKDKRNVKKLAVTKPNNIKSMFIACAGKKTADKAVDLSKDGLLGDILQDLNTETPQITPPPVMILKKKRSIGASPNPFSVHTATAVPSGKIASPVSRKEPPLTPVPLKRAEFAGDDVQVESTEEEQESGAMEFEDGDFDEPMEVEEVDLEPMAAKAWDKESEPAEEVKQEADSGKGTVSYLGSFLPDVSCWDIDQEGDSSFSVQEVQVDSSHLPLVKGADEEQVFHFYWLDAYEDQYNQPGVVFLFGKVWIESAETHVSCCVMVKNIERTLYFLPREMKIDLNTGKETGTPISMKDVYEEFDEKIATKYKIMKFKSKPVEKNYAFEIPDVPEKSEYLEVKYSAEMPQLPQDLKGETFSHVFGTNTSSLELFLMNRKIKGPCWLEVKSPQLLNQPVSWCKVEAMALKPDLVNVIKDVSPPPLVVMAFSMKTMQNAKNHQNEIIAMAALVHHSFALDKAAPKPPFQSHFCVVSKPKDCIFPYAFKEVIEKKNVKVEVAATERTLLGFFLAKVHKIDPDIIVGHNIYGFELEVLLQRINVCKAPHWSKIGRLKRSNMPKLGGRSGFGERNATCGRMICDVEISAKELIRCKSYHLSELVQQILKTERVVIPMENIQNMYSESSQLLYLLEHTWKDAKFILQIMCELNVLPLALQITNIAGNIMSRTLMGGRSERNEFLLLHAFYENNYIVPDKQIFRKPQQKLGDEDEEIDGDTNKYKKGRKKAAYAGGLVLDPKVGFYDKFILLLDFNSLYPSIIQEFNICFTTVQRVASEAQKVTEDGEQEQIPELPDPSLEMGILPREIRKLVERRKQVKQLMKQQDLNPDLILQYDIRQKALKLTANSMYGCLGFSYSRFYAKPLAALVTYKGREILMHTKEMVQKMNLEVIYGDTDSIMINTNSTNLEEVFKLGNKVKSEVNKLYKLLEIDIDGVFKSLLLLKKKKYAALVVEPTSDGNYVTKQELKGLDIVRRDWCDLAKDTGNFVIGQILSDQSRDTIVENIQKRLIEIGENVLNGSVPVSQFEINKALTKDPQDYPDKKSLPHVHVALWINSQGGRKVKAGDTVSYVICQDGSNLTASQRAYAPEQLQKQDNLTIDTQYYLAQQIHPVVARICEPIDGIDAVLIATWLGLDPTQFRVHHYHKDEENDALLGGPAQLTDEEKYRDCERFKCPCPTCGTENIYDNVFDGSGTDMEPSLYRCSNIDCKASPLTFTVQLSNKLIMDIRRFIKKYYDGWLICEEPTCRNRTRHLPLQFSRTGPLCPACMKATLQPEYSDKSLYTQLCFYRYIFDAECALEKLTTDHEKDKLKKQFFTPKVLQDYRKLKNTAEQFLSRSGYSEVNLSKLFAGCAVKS"}, "source": "paper doi:10.1101/2023.01.18.523235", "key": {"IFT140 wildtype (human) [1]": {"molecular_target": "IFT140 wildtype (human) (UniProt Q96RY7)", "assay": "affinity purification with mass spectrometry"}, "IFT140 wildtype (human) [2]": {"molecular_target": "IFT140 wildtype (human) (UniProt Q96RY7)", "assay": "affinity purification with mass spectrometry", "remark": "listed apart in the source"}}, "note": "Read-outs that look alike come from different tables or passages of the source. Results are given in words; binding and its absence hold for the method and conditions named. Binding seen in cells or lysates may run through a third protein. Here binding means that the protein was enriched with, or labelled near, the bait; the list need not be complete.", "data": [{"molecule": "PLEC (from UniProt Q15149 1-4684)", "values": [{"measurement": "binding", "setting": "IFT140 wildtype (human) [1]", "value": "binds"}]}, {"molecule": "NUDC (from UniProt Q9Y266 1-331)", "values": [{"measurement": "binding", "setting": "IFT140 wildtype (human) [1]", "value": "binds"}]}, {"molecule": "POLA1 (from UniProt P09884 1-1462)", "values": [{"measurement": "binding", "setting": "IFT140 wildtype (human) [1]", "value": "binds"}]}, {"molecule": "SMG9 (protein, UniProt Q9H0W8 1-520) MSESGHSQPGLYGIERRRRWKEPGSGGPQNLSGPGGRERDYIAPWERERRDASEETSTSVMQKTPIILSKPPAERSKQPPPPTAPAAPPAPAPLEKPIVLMKPREEGKGPVAVTGASTPEGTAPPPPAAPAPPKGEKEGQRPTQPVYQIQNRGMGTAAPAAMDPVVGQAKLLPPERMKHSIKLVDDQMNWCDSAIEYLLDQTDVLVVGVLGLQGTGKSMVMSLLSANTPEEDQRTYVFRAQSAEMKERGGNQTSGIDFFITQERIVFLDTQPILSPSILDHLINNDRKLPPEYNLPHTYVEMQSLQIAAFLFTVCHVVIVVQDWFTDLSLYRFLQTAEMVKPSTPSPSHESSSSSGSDEGTEYYPHLVFLQNKARREDFCPRKLRQMHLMIDQLMAHSHLRYKGTLSMLQCNVFPGLPPDFLDSEVNLFLVPFMDSEAESENPPRAGPGSSPLFSLLPGYRGHPSFQSLVSKLRSQVMSMARPQLSHTILTEKNWFHYAARIWDGVRKSSALAEYSRLLA", "values": [{"measurement": "binding", "setting": "IFT140 wildtype (human) [2]", "value": "binds"}]}, {"molecule": "STX8 (protein, UniProt Q9UNK0 1-236) MAPDPWFSTYDSTCQIAQEIAEKIQQRNQYERKGEKAPKLTVTIRALLQNLKEKIALLKDLLLRAVSTHQITQLEGDRRQNLLDDLVTRERLLLASFKNEGAEPDLIRSSLMSEEAKRGAPNPWLFEEPEETRGLGFDEIRQQQQKIIQEQDAGLDALSSIISRQKQMGQEIGNELDEQNEIIDDLANLVENTDEKLRNETRRVNMVDRKSASCGMIMVILLLLVAIVVVAVWPTN", "values": [{"measurement": "binding", "setting": "IFT140 wildtype (human) [2]", "value": "binds"}]}, {"molecule": "SPAG7 (protein, UniProt O75391 1-227) MADLLGSILSSMEKPPSLGDQETRRKAREQAARLKKLQEQEKQQKVEFRKRMEKEVSDFIQDSGQIKKKFQPMNKIERSILHDVVEVAGLTSFSFGEDDDCRYVMIFKKEFAPSDEELDSYRRGEEWDPQKAEEKRKLKELAQRQEEEAAQQGPVVVSPASDYKDKYSHLIGKGAAKDAAHMLQANKTYGCVPVANKRDTRSIEEAMNEIRAKKRLRQSGEELPPTS", "values": [{"measurement": "binding", "setting": "IFT140 wildtype (human) [2]", "value": "binds"}]}, {"molecule": "IFT43 (protein, UniProt Q96FT9 1-208) MEDLLDLDEELRYSLATSRAKMGRRAQQESAQAENHLNGKNSSLTLTGETSSAKLPRCRQGGWAGDSVKASKFRRKASEEIEDFRLRPQSLNGSDYGGDIPIIPDLEEVQEEDFVLQVAAPPSIQIKRVMTYRDLDNDLMKYSAIQTLDGEIDLKLLTKVLAPEHEVREDDVGWDWDHLFTEVSSEVLTEWDPLQTEKEDPAGQARHT", "values": [{"measurement": "binding", "setting": "IFT140 wildtype (human) [2]", "value": "binds"}]}, {"molecule": "IFT121 (protein, UniProt Q9P2L0 1-1181) MFFYLSKKISIPNNVKLQCVSWNKEQGFIACGGEDGLLKVLKLETQTDDAKLRGLAAPSNLSMNQTLEGHSGSVQVVTWNEQYQKLTTSDENGLIIVWMLYKGSWIEEMINNRNKSVVRSMSWNADGQKICIVYEDGAVIVGSVDGNRIWGKDLKGIQLSHVTWSADSKVLLFGMANGEIHIYDNQGNFMIKMKLSCLVNVTGAISIAGIHWYHGTEGYVEPDCPCLAVCFDNGRCQIMRHENDQNPVLIDTGMYVVGIQWNHMGSVLAVAGFQKAAMQDKDVNIVQFYTPFGEHLGTLKVPGKEISALSWEGGGLKIALAVDSFIYFANIRPNYKWGYCSNTVVYAYTRPDRPEYCVVFWDTKNNEKYVKYVKGLISITTCGDFCILATKADENHPQEENEMETFGATFVLVLCNSIGTPLDPKYIDIVPLFVAMTKTHVIAASKEAFYTWQYRVAKKLTALEINQITRSRKEGRERIYHVDDTPSGSMDGVLDYSKTIQGTRDPICAITASDKILIVGRESGTIQRYSLPNVGLIQKYSLNCRAYQLSLNCNSSRLAIIDISGVLTFFDLDARVTDSTGQQVVGELLKLERRDVWDMKWAKDNPDLFAMMEKTRMYVFRNLDPEEPIQTSGYICNFEDLEIKSVLLDEILKDPEHPNKDYLINFEIRSLRDSRALIEKVGIKDASQFIEDNPHPRLWRLLAEAALQKLDLYTAEQAFVRCKDYQGIKFVKRLGKLLSESMKQAEVVGYFGRFEEAERTYLEMDRRDLAIGLRLKLGDWFRVLQLLKTGSGDADDSLLEQANNAIGDYFADRQKWLNAVQYYVQGRNQERLAECYYMLEDYEGLENLAISLPENHKLLPEIAQMFVRVGMCEQAVTAFLKCSQPKAAVDTCVHLNQWNKAVELAKNHSMKEIGSLLARYASHLLEKNKTLDAIELYRKANYFFDAAKLMFKIADEEAKKGSKPLRVKKLYVLSALLIEQYHEQMKNAQRGKVKGKSSEATSALAGLLEEEVLSTTDRFTDNAWRGAEAYHFFILAQRQLYEGCVDTALKTALHLKDYEDIIPPVEIYSLLALCACASRAFGTCSKAFIKLKSLETLSSEQKQQYEDLALEIFTKHTSKDNRKPELDSLMEGGEGKLPTCVATGSPITEYQFWMCSVCKHGVLAQEISHYSFCPLCHSPVG", "values": [{"measurement": "binding", "setting": "IFT140 wildtype (human) [2]", "value": "binds"}]}, {"molecule": "TULP3 (endogenous) (protein, UniProt O75386 1-442) MEASRCRLSPSGDSVFHEEMMKMRQAKLDYQRLLLEKRQRKKRLEPFMVQPNPEARLRRAKPRASDEQTPLVNCHTPHSNVILHGIDGPAAVLKPDEVHAPSVSSSVVEEDAENTVDTASKPGLQERLQKHDISESVNFDEETDGISQSACLERPNSASSQNSTDTGTSGSATAAQPADNLLGDIDDLEDFVYSPAPQGVTVRCRIIRDKRGMDRGLFPTYYMYLEKEENQKIFLLAARKRKKSKTANYLISIDPVDLSREGESYVGKLRSNLMGTKFTVYDRGICPMKGRGLVGAAHTRQELAAISYETNVLGFKGPRKMSVIIPGMTLNHKQIPYQPQNNHDSLLSRWQNRTMENLVELHNKAPVWNSDTQSYVLNFRGRVTQASVKNFQIVHKNDPDYIVMQFGRVADDVFTLDYNYPLCAVQAFGIGLSSFDSKLACE", "values": [{"measurement": "binding", "setting": "IFT140 wildtype (human) [2]", "value": "binds"}]}, {"molecule": "SYNJ2 (protein, UniProt O15056 1-1496) MALSKGLRLLGRLGAEGDCSVLLEARGRDDCLLFEAGTVATLAPEEKEVIKGQYGKLTDAYGCLGELRLKSGGTSLSFLVLVTGCTSVGRIPDAEIYKITATDFYPLQEEAKEEERLIALKKILSSGVFYFSWPNDGSRFDLTVRTQKQGDDSSEWGNSFFWNQLLHVPLRQHQVSCCDWLLKIICGVVTIRTVYASHKQAKACLVSRVSCERTGTRFHTRGVNDDGHVSNFVETEQMIYMDDGVSSFVQIRGSVPLFWEQPGLQVGSHHLRLHRGLEANAPAFDRHMVLLKEQYGQQVVVNLLGSRGGEEVLNRAFKKLLWASCHAGDTPMINFDFHQFAKGGKLEKLETLLRPQLKLHWEDFDVFTKGENVSPRFQKGTLRMNCLDCLDRTNTVQSFIALEVLHLQLKTLGLSSKPIVDRFVESFKAMWSLNGHSLSKVFTGSRALEGKAKVGKLKDGARSMSRTIQSNFFDGVKQEAIKLLLVGDVYGEEVADKGGMLLDSTALLVTPRILKAMTERQSEFTNFKRIRIAMGTWNVNGGKQFRSNVLRTAELTDWLLDSPQLSGATDSQDDSSPADIFAVGFEEMVELSAGNIVNASTTNKKMWGEQLQKAISRSHRYILLTSAQLVGVCLYIFVRPYHVPFIRDVAIDTVKTGMGGKAGNKGAVGIRFQFHSTSFCFICSHLTAGQSQVKERNEDYKEITQKLCFPMGRNVFSHDYVFWCGDFNYRIDLTYEEVFYFVKRQDWKKLLEFDQLQLQKSSGKIFKDFHEGAINFGPTYKYDVGSAAYDTSDKCRTPAWTDRVLWWRKKHPFDKTAGELNLLDSDLDVDTKVRHTWSPGALQYYGRAELQASDHRPVLAIVEVEVQEVDVGARERVFQEVSSFQGPLDATVVVNLQSPTLEEKNEFPEDLRTELMQTLGSYGTIVLVRINQGQMLVTFADSHSALSVLDVDGMKVKGRAVKIRPKTKDWLKGLREEIIRKRDSMAPVSPTANSCLLEENFDFTSLDYESEGDILEDDEDYLVDEFNQPGVSDSELGGDDLSDVPGPTALAPPSKSPALTKKKQHPTYKDDADLVELKRELEAVGEFRHRSPSRSLSVPNRPRPPQPPQRPPPPTGLMVKKSASDASISSGTHGQYSILQTARLLPGAPQQPPKARTGISKPYNVKQIKTTNAQEAEAAIRCLLEARGGASEEALSAVAPRDLEASSEPEPTPGAAKPETPQAPPLLPRRPPPRVPAIKKPTLRRTGKPLSPEEQFEQQTVHFTIGPPETSVEAPPVVTAPRVPPVPKPRTFQPGKAAERPSHRKPASDEAPPGAGASVPPPLEAPPLVPKVPPRRKKSAPAAFHLQVLQSNSQLLQGLTYNSSDSPSGHPPAAGTVFPQGDFLSTSSATSPDSDGTKAMKPEAAPLLGDYQDPFWNLLHHPKLLNNTWLSKSSDPLDSGTRSPKRDPIDPVSAGASAAKAELPPDHEHKTLGHWVTISDQEKRTALQVFDPLAKT", "values": [{"measurement": "binding", "setting": "IFT140 wildtype (human) [2]", "value": "binds"}]}]}
